# ± gives the standard deviation of the averaged measurements. Only a part is listed here, and it is no random draw.
# Protein sequences, listed by entry. Tags and fused reporters are not part of them. Lines headed by an entry give the natural chain unless they say otherwise; changes in a name come on top.
# UniProt Q8IZ40: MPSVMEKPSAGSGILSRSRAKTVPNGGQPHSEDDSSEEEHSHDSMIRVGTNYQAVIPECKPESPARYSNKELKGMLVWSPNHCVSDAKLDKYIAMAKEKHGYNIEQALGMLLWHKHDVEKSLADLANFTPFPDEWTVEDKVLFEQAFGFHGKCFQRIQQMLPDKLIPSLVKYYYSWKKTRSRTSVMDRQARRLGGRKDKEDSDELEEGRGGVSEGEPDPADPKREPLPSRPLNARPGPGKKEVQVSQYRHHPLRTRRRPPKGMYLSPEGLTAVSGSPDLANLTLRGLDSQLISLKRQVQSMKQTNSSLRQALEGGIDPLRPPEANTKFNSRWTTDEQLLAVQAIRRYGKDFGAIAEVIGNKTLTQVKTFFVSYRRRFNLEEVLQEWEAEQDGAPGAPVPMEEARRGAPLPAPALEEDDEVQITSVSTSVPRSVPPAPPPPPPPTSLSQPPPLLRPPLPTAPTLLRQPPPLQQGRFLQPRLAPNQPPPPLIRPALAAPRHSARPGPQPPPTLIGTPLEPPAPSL
# UniProt Q8NHU6: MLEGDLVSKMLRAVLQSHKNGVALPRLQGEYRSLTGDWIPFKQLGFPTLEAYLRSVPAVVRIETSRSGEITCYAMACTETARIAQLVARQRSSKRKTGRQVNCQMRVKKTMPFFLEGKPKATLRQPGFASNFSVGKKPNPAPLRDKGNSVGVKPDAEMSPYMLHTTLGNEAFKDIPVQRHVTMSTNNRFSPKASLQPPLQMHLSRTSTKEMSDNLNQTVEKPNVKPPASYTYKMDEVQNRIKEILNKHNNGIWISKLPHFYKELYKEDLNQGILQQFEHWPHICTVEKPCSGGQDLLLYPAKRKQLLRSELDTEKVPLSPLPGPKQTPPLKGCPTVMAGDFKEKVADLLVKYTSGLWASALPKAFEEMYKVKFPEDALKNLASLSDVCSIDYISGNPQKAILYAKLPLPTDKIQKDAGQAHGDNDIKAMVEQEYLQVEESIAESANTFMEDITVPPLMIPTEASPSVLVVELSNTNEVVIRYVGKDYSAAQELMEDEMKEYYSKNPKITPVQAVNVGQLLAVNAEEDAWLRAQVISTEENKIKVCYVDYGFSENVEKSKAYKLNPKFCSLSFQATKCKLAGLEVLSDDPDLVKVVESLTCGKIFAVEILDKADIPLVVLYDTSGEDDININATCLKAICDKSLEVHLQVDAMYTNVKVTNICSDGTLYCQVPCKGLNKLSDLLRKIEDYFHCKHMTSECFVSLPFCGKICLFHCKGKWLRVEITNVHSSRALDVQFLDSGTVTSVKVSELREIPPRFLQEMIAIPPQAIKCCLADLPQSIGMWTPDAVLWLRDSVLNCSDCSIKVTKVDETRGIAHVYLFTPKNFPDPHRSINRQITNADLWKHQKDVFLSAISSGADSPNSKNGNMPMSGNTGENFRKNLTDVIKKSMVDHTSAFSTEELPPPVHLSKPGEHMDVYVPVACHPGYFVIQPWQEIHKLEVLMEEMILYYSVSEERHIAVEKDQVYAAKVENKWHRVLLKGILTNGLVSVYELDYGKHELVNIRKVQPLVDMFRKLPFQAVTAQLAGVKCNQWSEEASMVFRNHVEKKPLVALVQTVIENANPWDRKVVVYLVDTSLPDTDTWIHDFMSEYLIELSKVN
# UniProt Q8NFA0: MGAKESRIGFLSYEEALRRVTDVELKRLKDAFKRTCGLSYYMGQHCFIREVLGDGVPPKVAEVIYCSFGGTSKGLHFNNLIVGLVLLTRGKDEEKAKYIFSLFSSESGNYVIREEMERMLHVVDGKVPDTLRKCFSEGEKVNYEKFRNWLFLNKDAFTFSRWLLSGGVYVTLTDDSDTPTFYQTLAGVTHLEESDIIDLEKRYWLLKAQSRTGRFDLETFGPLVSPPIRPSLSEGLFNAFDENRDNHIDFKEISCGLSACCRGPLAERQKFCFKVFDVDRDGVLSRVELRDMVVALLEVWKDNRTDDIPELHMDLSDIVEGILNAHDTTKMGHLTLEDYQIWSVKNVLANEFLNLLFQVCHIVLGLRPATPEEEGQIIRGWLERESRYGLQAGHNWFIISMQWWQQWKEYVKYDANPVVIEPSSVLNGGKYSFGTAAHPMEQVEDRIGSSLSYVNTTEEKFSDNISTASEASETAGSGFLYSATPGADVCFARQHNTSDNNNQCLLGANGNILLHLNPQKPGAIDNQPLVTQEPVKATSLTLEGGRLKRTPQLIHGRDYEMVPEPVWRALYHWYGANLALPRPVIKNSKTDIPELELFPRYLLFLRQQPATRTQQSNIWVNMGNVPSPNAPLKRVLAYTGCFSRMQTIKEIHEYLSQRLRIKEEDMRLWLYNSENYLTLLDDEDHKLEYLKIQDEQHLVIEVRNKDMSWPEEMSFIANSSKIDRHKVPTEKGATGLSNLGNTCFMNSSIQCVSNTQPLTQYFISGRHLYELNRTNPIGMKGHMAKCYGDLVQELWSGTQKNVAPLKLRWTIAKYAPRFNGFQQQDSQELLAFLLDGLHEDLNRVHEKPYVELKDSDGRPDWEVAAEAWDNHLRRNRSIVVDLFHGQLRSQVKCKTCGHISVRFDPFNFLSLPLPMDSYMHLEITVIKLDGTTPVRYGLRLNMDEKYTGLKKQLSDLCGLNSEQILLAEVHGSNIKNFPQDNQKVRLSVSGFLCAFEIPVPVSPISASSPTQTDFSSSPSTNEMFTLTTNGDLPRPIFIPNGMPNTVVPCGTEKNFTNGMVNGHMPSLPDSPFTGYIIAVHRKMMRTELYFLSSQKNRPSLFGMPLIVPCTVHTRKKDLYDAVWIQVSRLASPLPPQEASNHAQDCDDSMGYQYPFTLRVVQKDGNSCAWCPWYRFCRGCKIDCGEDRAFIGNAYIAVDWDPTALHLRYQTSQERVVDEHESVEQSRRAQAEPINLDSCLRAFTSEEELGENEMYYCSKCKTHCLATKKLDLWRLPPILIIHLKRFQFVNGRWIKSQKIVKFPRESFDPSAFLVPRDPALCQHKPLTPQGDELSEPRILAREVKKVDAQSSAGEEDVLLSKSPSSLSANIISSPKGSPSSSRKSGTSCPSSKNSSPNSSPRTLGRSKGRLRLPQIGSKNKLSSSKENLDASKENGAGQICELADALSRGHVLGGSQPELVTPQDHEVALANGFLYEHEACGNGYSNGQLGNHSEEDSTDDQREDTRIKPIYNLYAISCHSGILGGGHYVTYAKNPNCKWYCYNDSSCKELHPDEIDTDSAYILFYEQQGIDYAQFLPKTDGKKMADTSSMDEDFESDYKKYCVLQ
# UniProt Q8N4S0: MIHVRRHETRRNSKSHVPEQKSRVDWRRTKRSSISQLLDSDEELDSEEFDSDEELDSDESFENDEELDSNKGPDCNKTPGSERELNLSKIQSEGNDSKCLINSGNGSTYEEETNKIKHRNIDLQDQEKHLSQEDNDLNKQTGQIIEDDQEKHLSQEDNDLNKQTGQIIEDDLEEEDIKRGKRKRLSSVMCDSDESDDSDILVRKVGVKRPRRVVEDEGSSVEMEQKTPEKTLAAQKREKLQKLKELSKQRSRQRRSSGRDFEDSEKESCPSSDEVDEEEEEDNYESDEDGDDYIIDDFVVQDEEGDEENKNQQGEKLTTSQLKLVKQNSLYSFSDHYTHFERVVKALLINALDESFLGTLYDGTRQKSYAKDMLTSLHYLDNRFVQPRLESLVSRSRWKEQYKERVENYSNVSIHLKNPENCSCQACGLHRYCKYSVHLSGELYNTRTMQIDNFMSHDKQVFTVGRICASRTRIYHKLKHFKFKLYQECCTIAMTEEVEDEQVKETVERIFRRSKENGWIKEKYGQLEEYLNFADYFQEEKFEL
# UniProt Q8IYS1: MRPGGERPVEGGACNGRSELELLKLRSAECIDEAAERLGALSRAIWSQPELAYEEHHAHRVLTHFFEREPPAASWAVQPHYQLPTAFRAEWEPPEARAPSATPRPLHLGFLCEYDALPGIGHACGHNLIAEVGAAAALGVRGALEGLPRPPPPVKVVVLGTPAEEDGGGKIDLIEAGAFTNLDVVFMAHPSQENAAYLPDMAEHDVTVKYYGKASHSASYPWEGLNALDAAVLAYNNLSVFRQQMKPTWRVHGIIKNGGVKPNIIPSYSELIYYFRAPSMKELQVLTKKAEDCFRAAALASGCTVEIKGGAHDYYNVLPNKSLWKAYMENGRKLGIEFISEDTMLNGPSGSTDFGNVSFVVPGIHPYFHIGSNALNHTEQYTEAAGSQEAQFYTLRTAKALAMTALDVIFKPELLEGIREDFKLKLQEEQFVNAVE
# UniProt Q8N6S5: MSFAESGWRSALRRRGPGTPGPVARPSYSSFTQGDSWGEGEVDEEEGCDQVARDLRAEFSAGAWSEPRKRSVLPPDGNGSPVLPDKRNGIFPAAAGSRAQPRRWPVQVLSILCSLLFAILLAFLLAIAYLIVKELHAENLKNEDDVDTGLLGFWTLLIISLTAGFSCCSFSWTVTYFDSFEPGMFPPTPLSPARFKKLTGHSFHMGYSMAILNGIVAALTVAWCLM
# UniProt Q8NI37: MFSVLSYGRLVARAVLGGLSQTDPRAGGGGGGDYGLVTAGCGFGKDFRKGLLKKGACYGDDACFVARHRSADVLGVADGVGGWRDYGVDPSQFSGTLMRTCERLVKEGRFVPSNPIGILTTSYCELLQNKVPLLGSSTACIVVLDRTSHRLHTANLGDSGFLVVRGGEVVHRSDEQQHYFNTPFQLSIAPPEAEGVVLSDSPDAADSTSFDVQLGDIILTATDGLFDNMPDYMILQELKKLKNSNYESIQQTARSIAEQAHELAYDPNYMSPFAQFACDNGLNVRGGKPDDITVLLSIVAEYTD
# UniProt Q8NBF6: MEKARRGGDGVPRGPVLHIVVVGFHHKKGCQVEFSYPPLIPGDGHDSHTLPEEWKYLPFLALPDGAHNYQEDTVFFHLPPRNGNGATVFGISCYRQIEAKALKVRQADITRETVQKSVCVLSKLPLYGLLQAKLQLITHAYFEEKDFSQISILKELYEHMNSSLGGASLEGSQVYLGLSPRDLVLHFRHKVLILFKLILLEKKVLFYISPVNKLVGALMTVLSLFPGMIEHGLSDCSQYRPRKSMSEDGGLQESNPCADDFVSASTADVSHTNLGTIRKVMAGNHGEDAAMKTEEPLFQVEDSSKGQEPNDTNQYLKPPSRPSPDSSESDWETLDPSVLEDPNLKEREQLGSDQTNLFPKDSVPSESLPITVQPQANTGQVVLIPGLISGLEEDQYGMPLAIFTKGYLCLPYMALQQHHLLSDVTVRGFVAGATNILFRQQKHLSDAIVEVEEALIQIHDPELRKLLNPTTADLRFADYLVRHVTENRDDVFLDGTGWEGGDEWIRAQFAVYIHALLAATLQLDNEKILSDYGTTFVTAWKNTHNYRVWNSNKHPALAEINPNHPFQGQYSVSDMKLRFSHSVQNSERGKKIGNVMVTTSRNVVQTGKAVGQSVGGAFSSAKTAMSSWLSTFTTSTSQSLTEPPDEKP
# UniProt Q8IZD4: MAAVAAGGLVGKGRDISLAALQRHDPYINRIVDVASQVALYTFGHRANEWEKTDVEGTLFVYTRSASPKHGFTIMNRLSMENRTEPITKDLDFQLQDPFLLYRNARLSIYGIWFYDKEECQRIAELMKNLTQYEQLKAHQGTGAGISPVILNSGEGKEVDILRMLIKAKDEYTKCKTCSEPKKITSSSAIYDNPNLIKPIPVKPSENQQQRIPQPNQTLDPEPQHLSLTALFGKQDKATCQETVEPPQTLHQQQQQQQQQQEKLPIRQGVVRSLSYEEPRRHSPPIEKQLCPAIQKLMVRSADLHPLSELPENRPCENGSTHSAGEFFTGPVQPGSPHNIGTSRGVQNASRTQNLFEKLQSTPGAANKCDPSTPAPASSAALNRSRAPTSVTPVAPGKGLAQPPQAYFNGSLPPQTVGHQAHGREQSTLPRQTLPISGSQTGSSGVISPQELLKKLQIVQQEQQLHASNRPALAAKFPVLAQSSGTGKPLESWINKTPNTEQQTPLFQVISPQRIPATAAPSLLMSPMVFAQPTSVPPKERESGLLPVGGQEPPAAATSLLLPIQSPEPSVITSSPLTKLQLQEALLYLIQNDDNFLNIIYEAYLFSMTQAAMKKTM
# UniProt Q8NFZ8: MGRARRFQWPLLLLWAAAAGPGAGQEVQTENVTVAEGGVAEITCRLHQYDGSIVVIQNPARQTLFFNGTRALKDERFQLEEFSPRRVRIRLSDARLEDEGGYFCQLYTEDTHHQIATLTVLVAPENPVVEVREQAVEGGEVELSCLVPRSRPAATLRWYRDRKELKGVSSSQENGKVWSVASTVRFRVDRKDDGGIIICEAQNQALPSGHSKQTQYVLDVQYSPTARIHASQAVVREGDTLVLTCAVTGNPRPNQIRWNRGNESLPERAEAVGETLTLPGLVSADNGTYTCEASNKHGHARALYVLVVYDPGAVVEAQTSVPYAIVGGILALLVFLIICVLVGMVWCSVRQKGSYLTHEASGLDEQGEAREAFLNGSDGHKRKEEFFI
# Compound: Nc1ncnc2c1ncn2[C@@H]1O[C@H](COP(=O)(O)OP(=O)(O)OP(=O)(O)O)[C@@H](O)[C@H]1O [adenosine triphosphate]
# Experiment: NP40-soluble protein abundance relative to vehicle (solubility fold change) (ratio); higher = more soluble protein in presence of ATP
# How it was run: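 Crude Jurkat lysate, prepared by Dounce homogenisation, was exposed to eight concentrations from 0.1 to 10 mM for 10 min at room temperature and then 3 min at 37 °C. Solubilisation used 0.8% NP40 with benzonase for 60 min at 4 °C, followed by ultracentrifugation and TMT labelling of the supernatant for LC-MS/MS. After vsn normalisation of intensities, each value is the fold change against the detergent-processed vehicle within each replicate, across three independent experiments.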
Target,NP40-soluble protein abundance (concentration: 1mM),NP40-soluble protein abundance (concentration: 2mM),NP40-soluble protein abundance (concentration: 4mM),NP40-soluble protein abundance (concentration: 6mM),NP40-soluble protein abundance (concentration: 8mM),NP40-soluble protein abundance (concentration: 10mM)
REXO1 (UniProt Q8N1G1),1.08 ± 0.06,1.19 ± 0.05,1.18 ± 0.052,1.19 ± 0.055,1.17 ± 0.034,1.26 ± 0.14
LEMD2 (UniProt Q8NC56),1.38 ± 0.092,1.42 ± 0.084,1.44 ± 0.12,1.5 ± 0.072,1.47 ± 0.097,1.47 ± 0.05
ARFGAP2 (UniProt Q8N6H7),0.9493 ± 0.006,0.946 ± 0.014,0.926 ± 0.012,0.975 ± 0.014,0.91 ± 0.037,0.932 ± 0.012
UniProt Q8IYH5 and related entries,1.04 ± 0.14,0.989 ± 0.14,1.01 ± 0.13,1.07 ± 0.21,0.968 ± 0.14,1.04 ± 0.16
RBM12B (UniProt Q8IXT5),1.09 ± 0.055,1.13 ± 0.092,1.19 ± 0.12,1.23 ± 0.1,1.28 ± 0.18,1.4 ± 0.11
AGGF1 (UniProt Q8N302),1.07 ± 0.033,1.08 ± 0.08,1.09 ± 0.045,1.06 ± 0.061,1.08 ± 0.011,1.11 ± 0.1
GSTCD (UniProt Q8NEC7),1 ± 0.056,0.995 ± 0.077,1.1 ± 0.1,0.972 ± 0.075,0.995 ± 0.048,0.978 ± 0.015
FAM76A (UniProt Q8TAV0),0.986 ± 0.061,0.9908 ± 0.0045,1.01 ± 0.077,1.03 ± 0.069,1.02 ± 0.064,1.07 ± 0.078
UniProt Q8IYU2 and related entries,1 ± 0.023,0.996 ± 0.066,0.977 ± 0.01,0.964 ± 0.16,0.912 ± 0.062,1.08 ± 0.13
UniProt Q8N4C8 and related entries,0.956 ± 0.067,0.97 ± 0.085,0.996 ± 0.081,1.04 ± 0.097,0.978 ± 0.072,0.983 ± 0.086
ANKRD13A (UniProt Q8IZ07),1.03 ± 0.11,0.981 ± 0.084,0.998 ± 0.081,0.956 ± 0.055,0.998 ± 0.022,1 ± 0.047
RCOR2 (UniProt Q8IZ40),0.952 ± 0.029,0.945 ± 0.0042,0.9376 ± 0.0055,1 ± 0.022,0.961 ± 0.041,1.01 ± 0.016
UniProt Q8N3U4 and related entries,1.08 ± 0.15,1.04 ± 0.11,1.01 ± 0.068,0.928 ± 0.14,1.06 ± 0.063,1.02 ± 0.086
UniProt Q8NHU6 and related entries,1.04 ± 0.039,1.02 ± 0.033,1.03 ± 0.027,1.02 ± 0.058,0.99 ± 0.018,0.996 ± 0.032
UniProt Q8N5U6 and related entries,1.1 ± 0.077,1.16 ± 0.059,1.24 ± 0.02,1.28 ± 0.063,1.27 ± 0.076,1.33 ± 0.061
UniProt Q8N4J0,1.03 ± 0.098,0.987 ± 0.071,0.972 ± 0.093,0.944 ± 0.096,0.994 ± 0.1,0.984 ± 0.041
USP32 (UniProt Q8NFA0),1.02 ± 0.096,0.994 ± 0.11,0.953 ± 0.045,0.965 ± 0.12,0.96 ± 0.086,0.978 ± 0.11
UniProt Q8IXI2-2|Q8IXI2-3,0.952 ± 0.014,0.99 ± 0.06,0.981 ± 0.016,0.931 ± 0.027,1 ± 0.056,0.998 ± 0.074
CCDC82 (UniProt Q8N4S0),0.708 ± 0.074,0.745 ± 0.039,0.719 ± 0.058,0.801 ± 0.069,0.77 ± 0.059,0.815 ± 0.05
CEP76 (UniProt Q8TAP6),1 ± 0.064,1.01 ± 0.048,1.06 ± 0.03,1 ± 0.057,1.03 ± 0.027,1.04 ± 0.046
UniProt Q8IYS2 and related entries,1.01 ± 0.078,0.997 ± 0.061,0.996 ± 0.064,0.97 ± 0.034,1.02 ± 0.073,1.04 ± 0.067
PM20D2 (UniProt Q8IYS1),1.01 ± 0.05,0.993 ± 0.041,0.969 ± 0.024,0.941 ± 0.076,0.983 ± 0.023,0.971 ± 0.046
ARL6IP6 (UniProt Q8N6S5),1.02 ± 0.036,1 ± 0.019,1.03 ± 0.017,0.975 ± 0.031,1.02 ± 0.031,1.02 ± 0.032
PPTC7 (UniProt Q8NI37),0.907 ± 0.14,0.93 ± 0.1,0.934 ± 0.12,0.909 ± 0.1,0.997 ± 0.063,0.889 ± 0.15
AVL9 (UniProt Q8NBF6),1 ± 0.053,1 ± 0.025,0.979 ± 0.013,0.943 ± 0.06,0.9791 ± 0.0038,1 ± 0.035
DCP1B (UniProt Q8IZD4),0.97 ± 0.07,0.974 ± 0.065,0.988 ± 0.051,0.989 ± 0.049,0.957 ± 0.027,0.969 ± 0.042
CADM4 (UniProt Q8NFZ8),1.15 ± 0.11,1.13 ± 0.033,1.2 ± 0.045,1.22 ± 0.12,1.1 ± 0.071,1.12 ± 0.21
ARFGAP1 (UniProt Q8N6T3),0.95 ± 0.025,0.946 ± 0.0078,0.9122 ± 0.0079,0.965 ± 0.035,0.8935 ± 0.0073,0.91 ± 0.023
SYTL1 (UniProt Q8IYJ3),1 ± 0.069,1.02 ± 0.05,1.03 ± 0.077,1.03 ± 0.037,1.01 ± 0.053,1.02 ± 0.064
TMEM102 (UniProt Q8N9M5),0.982 ± 0.14,1.06 ± 0.2,0.99 ± 0.079,1.07 ± 0.082,0.958 ± 0.012,0.959 ± 0.013

# As entered above.
# TMEM102 (UniProt Q8N9M5) | NP40-soluble protein abundance (concentration: 4mM): 0.99 ± 0.079
# SYTL1 (UniProt Q8IYJ3) | NP40-soluble protein abundance (concentration: 2mM): 1.02 ± 0.05
